Assay results published in the supplement of paper PMC10849652.
The list shows a part of the results.

Chains of the proteins cited; added tags and fusions are not shown. Lines headed by an entry give the natural chain unless they say otherwise; changes in a name come on top.
UniProt Q9Y2H6: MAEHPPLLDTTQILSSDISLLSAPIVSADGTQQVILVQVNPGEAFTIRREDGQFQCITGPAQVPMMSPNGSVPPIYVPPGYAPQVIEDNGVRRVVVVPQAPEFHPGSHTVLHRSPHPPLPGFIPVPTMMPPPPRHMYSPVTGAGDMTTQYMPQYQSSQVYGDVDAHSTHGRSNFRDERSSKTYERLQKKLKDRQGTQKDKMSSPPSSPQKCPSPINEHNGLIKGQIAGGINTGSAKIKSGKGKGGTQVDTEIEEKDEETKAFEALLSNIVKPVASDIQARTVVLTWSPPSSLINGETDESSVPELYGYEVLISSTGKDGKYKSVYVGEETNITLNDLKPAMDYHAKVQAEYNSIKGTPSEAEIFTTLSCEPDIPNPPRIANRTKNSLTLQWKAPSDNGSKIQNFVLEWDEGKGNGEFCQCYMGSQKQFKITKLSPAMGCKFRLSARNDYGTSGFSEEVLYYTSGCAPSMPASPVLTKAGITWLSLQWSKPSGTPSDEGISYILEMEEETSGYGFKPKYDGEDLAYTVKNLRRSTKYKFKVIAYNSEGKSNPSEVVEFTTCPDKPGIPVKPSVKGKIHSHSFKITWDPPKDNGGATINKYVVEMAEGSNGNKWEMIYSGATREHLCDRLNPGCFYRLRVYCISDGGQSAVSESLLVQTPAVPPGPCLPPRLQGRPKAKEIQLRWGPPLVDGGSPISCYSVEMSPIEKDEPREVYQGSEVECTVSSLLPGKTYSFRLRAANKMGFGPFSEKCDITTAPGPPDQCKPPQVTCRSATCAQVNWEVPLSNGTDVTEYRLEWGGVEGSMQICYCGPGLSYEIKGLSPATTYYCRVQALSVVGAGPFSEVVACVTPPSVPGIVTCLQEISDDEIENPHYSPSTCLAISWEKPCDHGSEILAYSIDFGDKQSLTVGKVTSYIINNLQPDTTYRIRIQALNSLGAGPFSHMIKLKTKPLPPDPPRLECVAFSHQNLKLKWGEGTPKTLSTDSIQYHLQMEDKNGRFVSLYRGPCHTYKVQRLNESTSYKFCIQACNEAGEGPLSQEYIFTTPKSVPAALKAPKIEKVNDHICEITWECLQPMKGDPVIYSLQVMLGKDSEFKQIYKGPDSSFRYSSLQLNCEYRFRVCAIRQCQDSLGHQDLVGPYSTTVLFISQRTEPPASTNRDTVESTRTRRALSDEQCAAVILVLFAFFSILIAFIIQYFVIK
UniProt Q9P0K8: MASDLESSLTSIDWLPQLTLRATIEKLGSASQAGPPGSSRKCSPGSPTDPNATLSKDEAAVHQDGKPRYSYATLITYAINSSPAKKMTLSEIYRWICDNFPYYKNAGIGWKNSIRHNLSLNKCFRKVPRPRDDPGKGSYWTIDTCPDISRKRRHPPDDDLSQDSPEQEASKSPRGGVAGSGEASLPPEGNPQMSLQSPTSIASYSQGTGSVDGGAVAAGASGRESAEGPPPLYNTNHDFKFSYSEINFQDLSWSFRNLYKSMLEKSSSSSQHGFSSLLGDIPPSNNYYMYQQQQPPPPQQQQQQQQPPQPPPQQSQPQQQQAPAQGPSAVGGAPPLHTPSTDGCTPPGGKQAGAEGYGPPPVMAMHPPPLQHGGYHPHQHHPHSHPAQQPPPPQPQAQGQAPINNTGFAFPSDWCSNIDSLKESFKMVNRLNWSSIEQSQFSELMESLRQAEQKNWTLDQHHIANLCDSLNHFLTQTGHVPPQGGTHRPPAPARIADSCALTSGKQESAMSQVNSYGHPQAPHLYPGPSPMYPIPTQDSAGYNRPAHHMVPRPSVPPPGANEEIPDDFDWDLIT
UniProt B1AJZ9: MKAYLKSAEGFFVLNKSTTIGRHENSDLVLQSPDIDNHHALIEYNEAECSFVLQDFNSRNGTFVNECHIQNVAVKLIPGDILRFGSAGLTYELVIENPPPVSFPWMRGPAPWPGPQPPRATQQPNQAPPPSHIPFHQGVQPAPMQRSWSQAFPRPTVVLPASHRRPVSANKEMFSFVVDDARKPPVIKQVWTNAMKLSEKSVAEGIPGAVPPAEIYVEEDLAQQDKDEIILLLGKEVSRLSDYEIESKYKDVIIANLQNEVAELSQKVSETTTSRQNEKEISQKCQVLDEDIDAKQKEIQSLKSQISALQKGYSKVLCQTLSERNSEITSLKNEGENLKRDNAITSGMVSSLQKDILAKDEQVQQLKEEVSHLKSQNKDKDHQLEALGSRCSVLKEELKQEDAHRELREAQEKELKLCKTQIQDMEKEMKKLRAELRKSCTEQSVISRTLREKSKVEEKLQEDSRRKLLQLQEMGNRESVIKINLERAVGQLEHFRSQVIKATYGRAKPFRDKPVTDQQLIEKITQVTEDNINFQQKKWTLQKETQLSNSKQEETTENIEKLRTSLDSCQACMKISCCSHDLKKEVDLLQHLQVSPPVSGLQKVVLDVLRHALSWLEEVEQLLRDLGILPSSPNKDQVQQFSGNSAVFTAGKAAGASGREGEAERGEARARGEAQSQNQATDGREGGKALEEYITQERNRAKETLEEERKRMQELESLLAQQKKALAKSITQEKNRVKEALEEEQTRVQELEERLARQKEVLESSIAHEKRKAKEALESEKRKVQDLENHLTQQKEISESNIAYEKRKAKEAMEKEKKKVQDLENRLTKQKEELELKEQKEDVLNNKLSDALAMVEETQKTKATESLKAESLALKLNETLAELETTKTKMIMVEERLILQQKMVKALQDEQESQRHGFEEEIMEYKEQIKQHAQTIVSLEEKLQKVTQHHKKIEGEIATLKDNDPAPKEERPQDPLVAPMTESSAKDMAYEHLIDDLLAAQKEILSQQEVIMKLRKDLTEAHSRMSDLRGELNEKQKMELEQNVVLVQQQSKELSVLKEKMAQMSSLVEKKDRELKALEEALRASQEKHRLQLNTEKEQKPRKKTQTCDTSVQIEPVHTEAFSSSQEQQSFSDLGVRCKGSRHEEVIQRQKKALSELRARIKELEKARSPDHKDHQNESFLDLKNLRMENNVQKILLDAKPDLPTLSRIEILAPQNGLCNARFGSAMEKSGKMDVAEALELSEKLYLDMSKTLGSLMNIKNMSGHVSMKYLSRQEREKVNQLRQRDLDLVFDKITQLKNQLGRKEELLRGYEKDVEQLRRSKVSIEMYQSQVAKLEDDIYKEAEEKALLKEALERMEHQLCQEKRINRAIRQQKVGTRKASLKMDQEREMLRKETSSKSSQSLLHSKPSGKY
UniProt Q9BSK4: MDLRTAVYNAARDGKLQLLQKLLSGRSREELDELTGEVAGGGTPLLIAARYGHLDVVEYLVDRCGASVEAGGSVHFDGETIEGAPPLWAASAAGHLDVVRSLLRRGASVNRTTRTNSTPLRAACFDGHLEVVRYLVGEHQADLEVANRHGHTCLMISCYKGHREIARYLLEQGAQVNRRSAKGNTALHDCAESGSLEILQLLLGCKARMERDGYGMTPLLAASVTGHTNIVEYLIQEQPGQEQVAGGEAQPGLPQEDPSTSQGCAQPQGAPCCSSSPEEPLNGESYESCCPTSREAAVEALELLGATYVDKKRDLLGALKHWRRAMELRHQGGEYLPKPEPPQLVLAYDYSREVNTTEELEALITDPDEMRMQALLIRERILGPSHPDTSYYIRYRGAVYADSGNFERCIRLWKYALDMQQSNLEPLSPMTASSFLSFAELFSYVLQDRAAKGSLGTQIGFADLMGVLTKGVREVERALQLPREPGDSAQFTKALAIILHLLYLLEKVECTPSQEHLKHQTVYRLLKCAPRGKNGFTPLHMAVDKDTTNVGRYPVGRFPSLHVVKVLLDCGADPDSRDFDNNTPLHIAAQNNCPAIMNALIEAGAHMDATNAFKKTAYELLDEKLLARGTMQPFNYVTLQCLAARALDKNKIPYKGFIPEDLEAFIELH
UniProt Q9UKA2: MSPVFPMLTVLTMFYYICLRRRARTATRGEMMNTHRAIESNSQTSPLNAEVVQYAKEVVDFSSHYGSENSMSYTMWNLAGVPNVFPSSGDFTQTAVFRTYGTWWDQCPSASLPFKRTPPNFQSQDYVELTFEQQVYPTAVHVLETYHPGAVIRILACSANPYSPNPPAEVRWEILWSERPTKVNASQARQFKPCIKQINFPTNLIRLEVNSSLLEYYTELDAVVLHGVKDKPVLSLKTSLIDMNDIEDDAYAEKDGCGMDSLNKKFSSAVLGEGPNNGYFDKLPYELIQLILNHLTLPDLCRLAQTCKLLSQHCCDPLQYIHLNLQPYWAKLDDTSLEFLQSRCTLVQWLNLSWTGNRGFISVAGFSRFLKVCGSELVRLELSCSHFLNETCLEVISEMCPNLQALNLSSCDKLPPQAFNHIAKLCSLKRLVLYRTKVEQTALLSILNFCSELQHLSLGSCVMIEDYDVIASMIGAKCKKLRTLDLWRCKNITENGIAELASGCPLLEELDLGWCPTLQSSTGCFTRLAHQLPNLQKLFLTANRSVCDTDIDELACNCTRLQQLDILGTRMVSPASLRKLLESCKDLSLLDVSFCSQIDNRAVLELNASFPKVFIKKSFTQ
UniProt Q00597: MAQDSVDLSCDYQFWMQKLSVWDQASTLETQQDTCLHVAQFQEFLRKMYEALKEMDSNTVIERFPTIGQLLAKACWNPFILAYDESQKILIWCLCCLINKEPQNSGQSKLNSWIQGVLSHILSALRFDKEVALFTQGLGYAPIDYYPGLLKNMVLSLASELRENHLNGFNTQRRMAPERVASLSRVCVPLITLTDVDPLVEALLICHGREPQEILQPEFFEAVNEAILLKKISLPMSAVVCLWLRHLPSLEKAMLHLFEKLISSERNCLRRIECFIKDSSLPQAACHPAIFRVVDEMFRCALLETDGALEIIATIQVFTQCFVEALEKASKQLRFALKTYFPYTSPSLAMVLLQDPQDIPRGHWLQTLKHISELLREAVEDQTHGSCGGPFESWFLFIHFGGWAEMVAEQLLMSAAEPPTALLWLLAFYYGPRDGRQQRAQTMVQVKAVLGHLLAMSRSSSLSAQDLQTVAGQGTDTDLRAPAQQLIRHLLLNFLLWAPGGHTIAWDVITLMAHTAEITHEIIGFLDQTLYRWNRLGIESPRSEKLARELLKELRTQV
UniProt Q9UKB1: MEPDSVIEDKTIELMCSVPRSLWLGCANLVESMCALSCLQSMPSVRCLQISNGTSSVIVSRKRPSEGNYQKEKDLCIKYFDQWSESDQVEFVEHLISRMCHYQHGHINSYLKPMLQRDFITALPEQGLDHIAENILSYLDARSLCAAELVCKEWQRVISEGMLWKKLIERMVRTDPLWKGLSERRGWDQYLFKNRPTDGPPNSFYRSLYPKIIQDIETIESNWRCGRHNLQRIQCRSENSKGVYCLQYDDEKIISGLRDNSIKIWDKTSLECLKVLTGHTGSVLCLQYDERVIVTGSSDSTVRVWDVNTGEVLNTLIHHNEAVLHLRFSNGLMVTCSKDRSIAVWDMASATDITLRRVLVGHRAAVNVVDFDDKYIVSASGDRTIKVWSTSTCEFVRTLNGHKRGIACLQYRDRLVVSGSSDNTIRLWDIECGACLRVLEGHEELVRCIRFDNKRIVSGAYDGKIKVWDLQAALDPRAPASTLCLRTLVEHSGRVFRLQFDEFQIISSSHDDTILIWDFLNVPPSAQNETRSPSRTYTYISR
UniProt Q96HJ9: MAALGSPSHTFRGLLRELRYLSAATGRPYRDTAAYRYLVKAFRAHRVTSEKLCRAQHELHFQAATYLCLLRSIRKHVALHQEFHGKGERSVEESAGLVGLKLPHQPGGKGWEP
UniProt Q14CZ7: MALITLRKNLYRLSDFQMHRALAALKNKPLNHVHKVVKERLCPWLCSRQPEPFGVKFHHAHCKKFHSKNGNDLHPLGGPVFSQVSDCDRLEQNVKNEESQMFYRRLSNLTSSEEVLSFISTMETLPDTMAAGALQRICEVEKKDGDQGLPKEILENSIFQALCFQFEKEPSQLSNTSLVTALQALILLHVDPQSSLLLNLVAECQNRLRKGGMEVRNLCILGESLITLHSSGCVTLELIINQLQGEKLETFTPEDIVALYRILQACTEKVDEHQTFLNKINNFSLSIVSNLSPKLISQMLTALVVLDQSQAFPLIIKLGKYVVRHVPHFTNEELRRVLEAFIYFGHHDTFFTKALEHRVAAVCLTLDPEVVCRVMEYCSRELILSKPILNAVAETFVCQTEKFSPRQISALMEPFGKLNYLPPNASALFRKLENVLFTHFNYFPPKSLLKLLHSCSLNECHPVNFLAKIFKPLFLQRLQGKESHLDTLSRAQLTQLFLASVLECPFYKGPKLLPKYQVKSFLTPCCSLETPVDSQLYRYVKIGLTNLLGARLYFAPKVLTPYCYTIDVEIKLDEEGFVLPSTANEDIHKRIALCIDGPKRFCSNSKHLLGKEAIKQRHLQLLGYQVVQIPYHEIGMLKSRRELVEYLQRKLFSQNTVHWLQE

How the values were obtained:
Test in all cases: log2 fold change, soluble protein after heating vs DMSO (PISA); higher = thermal stabilisation; K562 lysate, 10 uM; active = over 0.2 and 3.5 SD of the protein, either way, in both replicates (recomputed)
erlotinib = compound: C#Cc1cccc(Nc2ncnc3cc(OCCOC)c(OCCOC)cc23)c1 [erlotinib]
How it was run: (§1)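 Log-two fold change in thermal stability relative to solvent controls is reported from duplicates. For each sample, crude K562 extract from dounce-homogenised pellets in PBS pH 7.4 with 1 mM MgCl2, at 1 mg/mL protein, was treated with 10 μM compound for 30 min. Aliquots heated for 3 min across 48°C-58°C were pooled, brought to 0.5% NP-40 at 4°C and cleared at 21,000xg for 90 min. The supernatant was quantified by TMTpro 16plex LC-MS/MS with channel sums equalised.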

[1] = compound: C1=CC(=CC=C1C2=NC3=C(N2)C=C(C=C3)C(=O)N)OC4=CC=C(C=C4)Cl
How it was run: as §1

[2] = compound: C1=CC2=NC=CN=C2C=C1/C=C/3\C(=O)NC(=O)S3
How it was run: as §1

[3] = compound: C1=CC=C(C=C1)C2=NC(=C(N2)C3=CC=NC=C3)C4=CC(=C(C=C4)Cl)O
How it was run: as §1

IRAK-1-4 Inhibitor I = compound: C1COCCN1CCN2C3=CC=CC=C3N=C2NC(=O)C4=CC(=CC=C4)[N+](=O)[O-] [IRAK-1-4 Inhibitor I]
How it was run: as §1

ibrutinib = compound: C=CC(=O)N1CCC[C@@H](n2nc(-c3ccc(Oc4ccccc4)cc3)c3c(N)ncnc32)C1 [ibrutinib]
How it was run: as §1

[4] = compound: CC(=O)c1cnc2ccc(-c3cc(Cl)c(O)c(Cl)c3)nc2c1N[C@H]1CC[C@H](CN(C)C)CC1
How it was run: as §1

ralimetinib = compound: CC(C)(C)Cn1c(N)nc2ccc(-c3[nH]c(C(C)(C)C)nc3-c3ccc(F)cc3)nc21 [ralimetinib]
How it was run: as §1

[5] = compound: CC(C)(O)CC(=O)NCCn1ccc2ncnc(Nc3ccc(Oc4cccc(C(F)(F)F)c4)c(Cl)c3)c21
How it was run: as §1

[6] = compound: CC(C)C1=C2N=C(C=C(N2N=C1)NCC3=CC=CC=C3)NCCCCCCN
How it was run: as §1

[7] = compound: CC1=C(C2=C(C=C1)C(=O)C3=CC=CC=C3N2CCCN)C
How it was run: as §1

[8] = compound: CC1=C(C=C(C=C1)NC(=O)C2=CC(=CC=C2)C(C)(C)C#N)NC3=CC4=C(C=C3)N=CN(C4=O)C
How it was run: as §1

[9] = compound: CC1=C(C=C(C=C1)NC(=O)C2=CC(=CC=C2)N(C)C)NC(=O)C3=CC=C(C=C3)O
How it was run: as §1

[10] = compound: CC1=CC=C(C=C1)SC2=C3C=C(SC3=CN=C2)C(=O)N
How it was run: as §1

[11] = compound: CC1=C(C(CC(=O)N1)C2=CC=C(C=C2)C(F)(F)F)C(=O)NC3=C(C=C4C(=C3)C=NN4)F
How it was run: as §1

[12] = compound: C1CCN(C1)C(=O)NC2=CC=CC(=C2)NC3=NC=C(C(=N3)NCCC4=CN=CN4)Br
How it was run: as §1

[13] = compound: C1CN(CCC1(CC2=CC=C(C=C2)Cl)N)C3=NC=NC4=C3C=CN4
How it was run: as §1

[14] = compound: C/C(=N\NC(=O)C1=CC(=CC=C1)S(=O)(=O)N2CCOCC2)/C3=C(C=CC(=C3)Cl)O
How it was run: as §1

[15] = compound: C1=CC2=C(C=CC(=C2)/C=C\3/C(=O)NC(=NCC4=CC=CS4)S3)N=C1
How it was run: as §1

[16] = compound: C1=CC=C2C(=C1)C3=NNC4=CC=CC(=C43)C2=O
How it was run: as §1

| Target | log2 fold change (erlotinib) | log2 fold change [1] | log2 fold change [2] | log2 fold change [3] | log2 fold change (IRAK-1-4 Inhibitor I) | log2 fold change (ibrutinib) | log2 fold change [4] | log2 fold change (ralimetinib) | log2 fold change [5] | log2 fold change [6] | log2 fold change [7] | log2 fold change [8] | log2 fold change [9] | log2 fold change [10] | log2 fold change [11] | log2 fold change [12] | log2 fold change [13] | log2 fold change [14] | log2 fold change [15] | log2 fold change [16] |
| --- | --- | --- | --- | --- | --- | --- | --- | --- | --- | --- | --- | --- | --- | --- | --- | --- | --- | --- | --- | --- |
| FMR1 isoform 9 (UniProt Q06787) | inactive: -0.013 | inactive: -0.058 | inactive: -0.115 | inactive: -0.074 | inactive: -0.056 | inactive: 0.105 | inactive: 0.011 | inactive: -0.138 | inactive: -0.026 | inactive: -0.009 | inactive: 0.071 | inactive: -0.048 | inactive: 0.17 | inactive: 0.149 | – | – | – | – | – | – |
| FNDC3A (UniProt Q9Y2H6) | inactive: 0.198 | inactive: 0.024 | – | inactive: -0.112 | inactive: 0.04 | – | – | inactive: 0.118 | inactive: -0.207 | inactive: -0.093 | – | inactive: 0.027 | inactive: 0.113 | – | inactive: 0.31 | – | – | – | – | – |
| FOXJ2 (UniProt Q9P0K8) | inactive: 0.102 | inactive: 0.056 | inactive: 0.139 | inactive: 0.026 | inactive: -0.03 | inactive: -0.045 | – | inactive: 0.02 | inactive: -0.035 | inactive: 0.091 | inactive: -0.129 | – | inactive: 0.108 | – | inactive: 0.041 | inactive: 0.138 | inactive: -0.036 | – | – | – |
| FHAD1 isoform 3 (UniProt B1AJZ9) | inactive: 0.091 | inactive: 0.174 | – | inactive: 0.075 | inactive: 0.115 | – | inactive: -0.139 | inactive: -0.162 | inactive: -0.232 | inactive: 0.059 | inactive: -0.098 | – | inactive: 0 | inactive: -0.088 | – | inactive: -0.085 | inactive: 0.077 | inactive: 0.01 | inactive: -0.124 | inactive: -0.107 |
| FBRSL1, A0A3B3IRR3 | inactive: -0.014 | inactive: 0.042 | inactive: 0 | inactive: -0.028 | inactive: -0.024 | inactive: 0.072 | – | inactive: 0.027 | inactive: 0.008 | inactive: -0.075 | inactive: 0.183 | active: -0.381 | inactive: 0.012 | – | inactive: -0.01 | inactive: 0.043 | inactive: -0.015 | inactive: -0.021 | inactive: -0.03 | inactive: -0.199 |
| FARP2 (UniProt H7C3M7) | inactive: 0.089 | inactive: -0.189 | – | inactive: 0.036 | inactive: 0.007 | – | – | inactive: -0.01 | inactive: -0.007 | inactive: -0.048 | inactive: -0.081 | inactive: 0.008 | inactive: -0.034 | – | inactive: -0.035 | inactive: -0.057 | inactive: 0.145 | inactive: 0.061 | inactive: 0.061 | inactive: -0.002 |
| FEM1A (UniProt Q9BSK4) | inactive: -0.024 | inactive: 0.04 | – | inactive: 0.193 | inactive: 0.034 | – | inactive: -0.028 | inactive: -0.147 | inactive: -0.03 | inactive: 0.043 | – | – | inactive: 0.145 | inactive: 0.019 | inactive: 0.027 | inactive: 0.119 | inactive: 0.09 | inactive: 0.018 | inactive: -0.042 | inactive: -0.059 |
| FBXO45 (UniProt P0C2W1) | inactive: 0.077 | inactive: -0.033 | inactive: -0.099 | inactive: -0.126 | inactive: -0.043 | inactive: 0.207 | inactive: 0.075 | inactive: 0.173 | inactive: 0.045 | inactive: 0.043 | – | inactive: 0.064 | inactive: 0.018 | inactive: 0.081 | inactive: 0.015 | inactive: 0.018 | inactive: 0.01 | inactive: 0.016 | inactive: 0.092 | inactive: -0.069 |
| FBXL4 (UniProt Q9UKA2) | inactive: -0.021 | inactive: 0.042 | – | inactive: 0.074 | inactive: 0.003 | – | – | inactive: 0.063 | inactive: -0.049 | inactive: -0.161 | – | – | inactive: -0.021 | – | inactive: 0.046 | inactive: 0.206 | inactive: 0.157 | – | – | – |
| FANCC (UniProt Q00597) | inactive: 0.115 | inactive: -0.021 | – | inactive: -0.003 | inactive: 0.291 | – | inactive: -0.048 | inactive: -0.14 | inactive: -0.331 | inactive: -0.001 | – | inactive: -0.093 | inactive: 0.026 | inactive: 0.114 | – | – | – | – | – | – |
| FBXW11 (UniProt Q9UKB1) | inactive: 0.007 | inactive: 0.159 | inactive: -0.011 | inactive: -0.029 | inactive: 0.031 | inactive: 0.008 | inactive: -0.113 | inactive: 0.003 | inactive: 0 | inactive: -0.151 | inactive: -0.047 | inactive: 0.009 | inactive: 0.045 | inactive: 0.071 | – | inactive: -0.063 | inactive: 0.127 | – | – | – |
| FMC1 (UniProt Q96HJ9) | inactive: -0.023 | inactive: 0.002 | inactive: 0.019 | inactive: 0.109 | inactive: -0.02 | inactive: -0.071 | inactive: -0.06 | inactive: 0.119 | inactive: 0.077 | inactive: -0.026 | inactive: -0.028 | inactive: 0.027 | inactive: -0.102 | inactive: 0.027 | – | inactive: 0.099 | inactive: -0.14 | inactive: -0.106 | inactive: -0.032 | inactive: 0.037 |
| FASTKD3 (UniProt Q14CZ7) | – | – | – | – | – | – | inactive: 0.054 | – | – | – | – | – | – | inactive: -0.181 | inactive: -0.16 | inactive: 0.137 | inactive: -0.159 | – | – | – |
